From publication PMC3348885
No constants are given. Whether binding was seen depends on the method and setting. Values belong to the binder of their own block, whether it stands above or below them.

Assays:
[1] = molecular target: T1, CED-4 (Apaf-1-like protein) (C. elegans) (UniProt P30429); experiment: two-hybrid; yeast strain MaV203; transformants streaked on SC-Trp-Leu-His or SC-Trp-Leu plates containing 30 mM 3 AT; growth on SC-Trp-Leu-His + 30 mM 3 AT indicates an interaction
T1 sequence: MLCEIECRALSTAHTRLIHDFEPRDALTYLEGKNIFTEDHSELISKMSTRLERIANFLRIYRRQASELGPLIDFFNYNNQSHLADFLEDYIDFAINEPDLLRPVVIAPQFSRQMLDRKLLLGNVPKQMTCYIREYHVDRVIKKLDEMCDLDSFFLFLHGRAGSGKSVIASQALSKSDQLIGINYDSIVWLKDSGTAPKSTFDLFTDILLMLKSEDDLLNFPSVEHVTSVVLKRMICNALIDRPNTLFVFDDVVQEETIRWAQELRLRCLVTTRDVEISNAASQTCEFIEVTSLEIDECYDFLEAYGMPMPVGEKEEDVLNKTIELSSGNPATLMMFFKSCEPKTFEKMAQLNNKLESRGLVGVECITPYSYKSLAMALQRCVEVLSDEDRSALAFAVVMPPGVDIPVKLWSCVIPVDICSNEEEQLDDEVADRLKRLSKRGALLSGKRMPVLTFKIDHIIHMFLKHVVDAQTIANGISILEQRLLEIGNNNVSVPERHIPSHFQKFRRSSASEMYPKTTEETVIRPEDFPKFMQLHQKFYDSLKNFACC

[2] = molecular target: T2, CED-3 caspase (C. elegans) (UniProt P42573); experiment: as above
T2 sequence: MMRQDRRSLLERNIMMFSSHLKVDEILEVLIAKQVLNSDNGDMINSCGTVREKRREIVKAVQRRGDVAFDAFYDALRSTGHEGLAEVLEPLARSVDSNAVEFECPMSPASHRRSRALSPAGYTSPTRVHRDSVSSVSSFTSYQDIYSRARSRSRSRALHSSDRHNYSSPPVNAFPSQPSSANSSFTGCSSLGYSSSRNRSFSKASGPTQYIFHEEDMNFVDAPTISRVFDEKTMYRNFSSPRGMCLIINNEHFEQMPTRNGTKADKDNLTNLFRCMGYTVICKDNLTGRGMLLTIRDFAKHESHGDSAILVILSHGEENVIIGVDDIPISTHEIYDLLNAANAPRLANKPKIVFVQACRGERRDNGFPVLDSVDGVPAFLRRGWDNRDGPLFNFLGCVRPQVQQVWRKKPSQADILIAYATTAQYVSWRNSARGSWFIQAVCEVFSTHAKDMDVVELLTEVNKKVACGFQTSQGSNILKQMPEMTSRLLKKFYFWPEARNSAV

- binding [1]: no binding
- binding [2]: no binding
B1: C. elegans EIF-3.K (eukaryotic translation initiation factor 3 subunit k) (protein, UniProt Q9XUP3 1-240)
chain: MSFEKLQKELHEAIEGVNRYNPENVADLAACVQAMVNENKYDKDIVLTILKLYQLNPEKYDEAVVRQVLLKTLMVLPSSDFALAKCLIDTNRLGSQELRRIFDLGAVLESCNFAVFWKLVKGAYKPTTNPNEPFKVPGEVPKMIKPMVGFEDAVKHYACRVISVTFQKIEKKMLSRLLGGASDKEVTALAQSFGWEAKENGDVFFVANHEGTIKTRNIDEKIQFPHVADLLTSIQPPLTL

- binding [1]: no binding
- binding [2]: no binding
B2: WH (Winged Helix) domain of C. elegans EIF-3.K (domain or fragment, UniProt Q9XUP3 148-208)
chain: VGFEDAVKHYACRVISVTFQKIEKKMLSRLLGGASDKEVTALAQSFGWEAKENGDVFFVAN
